Results are given in words; binding and its absence hold for the method and conditions named. Some binding calls cover weakened binding; strength is not graded here.

Chains of the proteins cited; added tags and fusions are not shown. Residues count along the entry.
UniProt P02769, residues 25-607: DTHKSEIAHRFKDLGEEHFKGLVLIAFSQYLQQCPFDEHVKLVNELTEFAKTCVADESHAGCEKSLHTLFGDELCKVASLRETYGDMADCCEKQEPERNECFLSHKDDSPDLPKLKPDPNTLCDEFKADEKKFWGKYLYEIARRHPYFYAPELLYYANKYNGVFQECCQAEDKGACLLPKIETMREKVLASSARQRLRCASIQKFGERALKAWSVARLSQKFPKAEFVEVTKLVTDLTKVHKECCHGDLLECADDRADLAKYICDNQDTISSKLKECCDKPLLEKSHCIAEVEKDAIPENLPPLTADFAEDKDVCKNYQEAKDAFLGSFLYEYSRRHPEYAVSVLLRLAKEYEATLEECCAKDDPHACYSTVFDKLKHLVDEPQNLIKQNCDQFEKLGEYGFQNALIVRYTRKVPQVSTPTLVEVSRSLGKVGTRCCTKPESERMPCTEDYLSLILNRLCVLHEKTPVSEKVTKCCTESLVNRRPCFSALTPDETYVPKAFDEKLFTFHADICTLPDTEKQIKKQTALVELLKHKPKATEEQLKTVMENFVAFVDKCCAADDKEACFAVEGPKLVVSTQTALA

The values below come from patent US20250127814A1.

The target in assay [1] is T1, cell surface borealin on murine tumor cell lines (CT26, MC38, 4T1) (mouse) (UniProt Q8BHX3).
T1 sequence (single chain, looked up): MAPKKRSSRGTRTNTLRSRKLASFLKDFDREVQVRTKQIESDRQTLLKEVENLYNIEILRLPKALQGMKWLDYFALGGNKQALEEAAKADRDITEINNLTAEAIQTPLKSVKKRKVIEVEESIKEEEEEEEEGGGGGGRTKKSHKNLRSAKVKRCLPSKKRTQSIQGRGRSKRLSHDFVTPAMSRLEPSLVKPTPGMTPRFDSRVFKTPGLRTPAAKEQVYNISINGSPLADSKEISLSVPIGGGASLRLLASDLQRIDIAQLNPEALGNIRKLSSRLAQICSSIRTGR
Nature of the assay: flow cytometry, CT26 murine colorectal carcinoma cells, 200 nM Fab, anti-human F(ab')2-A647 [left]. (Flow cytometry measures light scatter and fluorescence of single cells or particles in a stream.)

Substrate in assay [2]: T2, INC-N
T2 sequence: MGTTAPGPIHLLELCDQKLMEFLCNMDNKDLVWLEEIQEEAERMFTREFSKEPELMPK
The assay is described as follows: Western blot of recombinant CPC domains, Fab as primary reagent, anti-human F(ab')2 IgG-HRP [panel A]. In general terms: A western blot detects proteins with antibodies after separation by electrophoresis.

Assay [3] has as its target BSA (bovine) (UniProt P02769). The assay is described as follows: single-point Fab ELISA, BSA control wells, protein L-HRP [panel A].
The target of assay [4] is T1, cell surface borealin on murine tumor cell lines (CT26, MC38, 4T1) (mouse). The assay is described as follows: flow cytometry, 4T1 murine mammary carcinoma cells, 200 nM Fab, anti-human F(ab')2-A647 [right].
For assay [5] the target is unchanged. Nature of the assay: flow cytometry, MC38 murine colorectal carcinoma cells, 200 nM Fab, anti-human F(ab')2-A647 [middle].
Assay [6] addresses BSA (bovine) (UniProt P02769). The assay is described as follows: single-point Fab ELISA, BSA control wells, protein L-HRP [panel B]. A general note: An ELISA detects its analyte on a solid surface through an enzyme-linked reagent.

B1: BOR-N-48 (Fab, V domains shown)
VH: EVQLVESGGGLVQPGGSLRLSCAASGFNFSYSSIHWVRQAPGKGLEWVASIYPYSGSTYYADSVKGRFTISADTSKNTAYLQMNSLRAEDTAVYYCARKQVSGWWWYYGFDYWGQGTLVTVSS
VL: DIQMTQSPSSLSASVGDRVTITCRASQSVSSAVAWYQQKPGKAPKLLIYSASSLYSGVPSRFSGSRSGTDFTLTISSLQPEDFATYYCQQSYWWPITFGQGTKVEIKR
Consider B1, for which the binding result in assay [1] is listed as “binds”; in assay [2], “no binding (tested: 5-10 ug/ml (the text prints 'lg/ml'))”; with BSA (bovine) [3], “no binding (tested: 200 nM)”; in assay [4], “binds”; in assay [5] it was “binds”.

B2: BOR-N-49 (Fab, V domains shown)
VH: EVQLVESGGGLVQPGGSLRLSCAASGFNVSSYSIHWVRQAPGKGLEWVASIYSSSSSTYYADSVKGRFTISADTSKNTAYLQMNSLRAEDTAVYYCARRYYHYRYPLFWGWYGMDYWGQGTLVTVSS
VL: DIQMTQSPSSLSASVGDRVTITCRASQSVSSAVAWYQQKPGKAPKLLIYSASSLYSGVPSRFSGSRSGTDFTLTISSLQPEDFATYYCQQSFWWPITFGQGTKVEIKR
In the case of B2, the binding result in the assay with BSA (bovine) [3] was “no binding (tested: 200 nM)”.

B3: BOR-C-64 (Fab, V domains shown)
VH: EVQLVESGGGLVQPGGSLRLSCAASGFNVYYSSIHWVRQAPGKGLEWVASISSYYGSTYYADSVKGRFTISADTSKNTAYLQMNSLRAEDTAVYYCARWKWVAMDYWGQGTLVTVSS
VL: DIQMTQSPSSLSASVGDRVTITCRASQSVSSAVAWYQQKPGKAPKLLIYSASSLYSGVPSRFSGSRSGTDFTLTISSLQPEDFATYYCQQDLFMPITFGQGTKVEIKR
Take B3: the binding result with BSA (bovine) [6] is recorded as “no binding (tested: 200 nM)”.

B4: BOR-C-58 (Fab, V domains shown)
VH: EVQLVESGGGLVQPGGSLRLSCAASGFNVSSYSIHWVRQAPGKGLEWVASISPYYGYTSYADSVKGRFTISADTSKNTAYLQMNSLRAEDTAVYYCARHYYYGFSWFSSGYAMDYWGQGTLVTVSS
VL: DIQMTQSPSSLSASVGDRVTITCRASQSVSSAVAWYQQKPGKAPKLLIYSASSLYSGVPSRFSGSRSGTDFTLTISSLQPEDFATYYCQQGSSSPITFGQGTKVEIKR
As to B4, the binding result with BSA (bovine) [6] was “no binding (tested: 200 nM)”.

B5: BOR-N-65 (Fab, V domains shown)
VH: EVQLVESGGGLVQPGGSLRLSCAASGFNFSSSSIHWVRQAPGKGLEWVASISSSSGSTSYADSVKGRFTISADTSKNTAYLQMNSLRAEDTAVYYCARESSQTKKYWYWVVQWYTAMDYWGQGTLVTVSS
VL: DIQMTQSPSSLSASVGDRVTITCRASQSVSSAVAWYQQKPGKAPKLLIYSASSLYSGVPSRFSGSRSGTDFTLTISSLQPEDFATYYCQQYSQWLITFGQGTKVEIKR
Consider B5, for which the binding entry in the assay with BSA (bovine) [3] is given as “no binding (tested: 200 nM)”.

B6: BOR-C-56 (Fab, V domains shown)
VH: EVQLVESGGGLVQPGGSLRLSCAASGFNISSSSIHWVRQAPGKGLEWVAYISSYSGSTYYADSVKGRFTISADTSKNTAYLQMNSLRAEDTAVYYCARYYHSPLWYYSYSGMDYWGQGTLVTVSS
VL: DIQMTQSPSSLSASVGDRVTITCRASQSVSSAVAWYQQKPGKAPKLLIYSASSLYSGVPSRFSGSRSGTDFTLTISSLQPEDFATYYCQQDYSWSPITFGQGTKVEIKR
Turning to B6, the binding entry with BSA (bovine) [6] was “no binding (tested: 200 nM)”.

B7: BOR-C-57 (Fab, V domains shown)
VH: EVQLVESGGGLVQPGGSLRLSCAASGFNISSSSIHWVRQAPGKGLEWVASISSYYSYTYYADSVKGRFTISADTSKNTAYLQMNSLRAEDTAVYYCARGAWYGYLGYYAYYYYALDYWGQGTLVTVSS
VL: DIQMTQSPSSLSASVGDRVTITCRASQSVSSAVAWYQQKPGKAPKLLIYSASSLYSGVPSRFSGSRSGTDFTLTISSLQPEDFATYYCQQMGYETLITFGQGTKVEIKR
With B7, in the assay with BSA (bovine) [6], the binding entry was “no binding (tested: 200 nM)”.

B8: BOR-N-51 (Fab, V domains shown)
VH: EVQLVESGGGLVQPGGSLRLSCAASGFNVYSYSIHWVRQAPGKGLEWVASIYSSYSYTSYADSVKGRFTISADTSKNTAYLQMNSLRAEDTAVYYCARKYHFKPTYWGAMDYWGQGTLVTVSS
VL: DIQMTQSPSSLSASVGDRVTITCRASQSVSSAVAWYQQKPGKAPKLLIYSASSLYSGVPSRFSGSRSGTDFTLTISSLQPEDFATYYCQQSSLYYPLTFGQGTKVEIKR
As for B8, in the assay with BSA (bovine) [3], the binding entry was “no binding (tested: 200 nM)”.
